Consider one substance from patent publication US9377472B2, “Biological complex specific for Alzheimer's disease detection in vitro and use thereof” (Amoneta Diagnostics, priority 2012, dated 2016).

Data set [1] relates to red blood cells. Kind of data set: Fluorescent probe A1 binding on purified RBC of TAS/TPM vs wild type mice, spectrofluorimeter spectral index, ROC. Type of data set: cell-based, mouse. Conditions: ROC curve FIG. 3.
Data set [2] deals with red blood cells. Kind of data set: Fluorescent probe A1 binding on purified RBC of TAS/TPM vs wild type mice, flow cytometer, ROC. Type of data set: cell-based, mouse. Conditions: ROC curve FIG. 4; for Sensitivity / Specificity: cut off 2%. Background: Flow cytometry measures light scatter and fluorescence of single cells or particles in a stream.

Turning to “A1: specific fluorescent probe consisting of Aβ1-42 labeled on lysine 16 with a Bodipy residue”, the Area under curve in the data set on red blood cells [1] (mice aged 4 months) is 55%; in the data set on red blood cells [1] (mice aged 14 months), 85%; in the data set with red blood cells [2] (mice 9-12 months), 54.7%; in the data set with red blood cells [2] (mice 19-22 months), 67%. The Sensitivity in the data set on red blood cells [1] (mice aged 4 months) amounted to 50%; with red blood cells [1] (mice aged 14 months), 85%; in the data set on red blood cells [2] (mice 9-12 months) it was 71.4%; with red blood cells [2] (mice 19-22 months), 64.3%. In addition, the Specificity with red blood cells [1] (mice aged 4 months) was determined as 70%; in the data set with red blood cells [1] (mice aged 14 months), 73%; in the data set on red blood cells [2] (mice 9-12 months) it was 52.3%; in the data set with red blood cells [2] (mice 19-22 months) it was 83.3%.
